Laboratory results taken from patent US20210317219A1.
Residue numbers refer to the chain shown, from its start. No constants are given. Whether binding was seen depends on the method and setting. Some results given as binding are weak or reduced against the parent protein; the word gives no strength.

Protein sequences, listed by entry. Tags and fused reporters are not part of them. Lines headed by an entry give the natural chain unless they say otherwise; changes in a name come on top.
UniProt P07333: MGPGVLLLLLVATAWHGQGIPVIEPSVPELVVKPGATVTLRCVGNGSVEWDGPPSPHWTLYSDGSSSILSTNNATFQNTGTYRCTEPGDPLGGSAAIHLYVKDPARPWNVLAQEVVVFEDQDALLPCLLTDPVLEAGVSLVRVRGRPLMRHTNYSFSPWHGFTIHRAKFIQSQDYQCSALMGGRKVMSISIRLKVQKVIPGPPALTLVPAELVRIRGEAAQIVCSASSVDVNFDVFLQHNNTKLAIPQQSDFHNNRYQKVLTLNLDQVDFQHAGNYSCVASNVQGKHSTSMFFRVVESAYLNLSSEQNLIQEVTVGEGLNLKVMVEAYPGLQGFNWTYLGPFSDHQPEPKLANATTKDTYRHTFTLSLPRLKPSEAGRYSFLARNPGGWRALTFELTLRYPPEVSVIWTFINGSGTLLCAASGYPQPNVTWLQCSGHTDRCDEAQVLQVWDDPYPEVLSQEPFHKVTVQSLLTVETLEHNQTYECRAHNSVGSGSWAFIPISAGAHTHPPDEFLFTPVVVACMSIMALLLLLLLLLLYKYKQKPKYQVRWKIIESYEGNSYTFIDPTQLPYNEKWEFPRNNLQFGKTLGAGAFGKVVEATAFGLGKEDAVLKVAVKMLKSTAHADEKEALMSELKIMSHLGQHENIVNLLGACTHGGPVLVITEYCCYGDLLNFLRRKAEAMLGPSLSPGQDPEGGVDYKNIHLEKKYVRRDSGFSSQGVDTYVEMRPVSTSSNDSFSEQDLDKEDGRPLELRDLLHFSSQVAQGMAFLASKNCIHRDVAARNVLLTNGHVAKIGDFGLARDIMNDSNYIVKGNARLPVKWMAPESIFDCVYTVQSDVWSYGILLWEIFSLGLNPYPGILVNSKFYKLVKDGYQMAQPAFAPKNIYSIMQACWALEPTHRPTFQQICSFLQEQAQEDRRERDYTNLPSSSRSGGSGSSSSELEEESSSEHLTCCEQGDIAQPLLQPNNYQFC

B1: huAb7 (antibody, human IgG4 S228P, kappa, V domains shown)
VH: QVQLVQSGAEVKKPGSSVKVSCKASGYTFSDFNIHWVRQAPGQGLEWMGYINPYTDVTVYNEKFKGRVTITSDKSTSTAYMELSSLRSEDTAVYYCASYFDGTFDYALDYWGQGTLVTVSS
VL: EIVLTQSPATLSLSPGERATLSCRASESVDNYGLSFMNWYQQKPGQAPRLLIYTASNLESGIPARFSGSGSGTDFTLTISSLEPEDFAVYYCQQSKELPWTFGQGTKVEIKR
B2: huAb15 (antibody, human IgG4 S228P, kappa, V domains shown)
VH: QVQLVQSGAEVKKPGSSVKVSCKASGYIFTDYNMHWVRQAPGQGLEWMGEINPNNGVVVYNQKFKGTTTLTVDKSTSTAYMELSSLRSEDTAVYYCTRALYHSNFGWYFDSWGQGTLVTVSS
VL: B1 VL with R24K, E27Q, N31Y, Y32D, L34D, F36H, S95G, K96N, L98D
B3: huAb13 (antibody, human IgG4 S228P, kappa, V domains shown)
VH: B2 VH with T67R, T68V, L70I
VL: B1 VL with R24K, E27Q, N31Y, Y32D, L34D, F36H, S95G, K96N, L98D
B4: huAb10 (antibody, human IgG4 S228P, kappa, V domains shown)
VH: B1 VH with M48I, V68A, I70L
VL: B1 VL
B5: huAb9 (antibody, human IgG4 S228P, kappa, V domains shown)
VH: B1 VH
VL: B1 VL with L4V, Y40F, G72R
B6: huAb8 (antibody, human IgG4 S228P, kappa, V domains shown)
VH: B1 VH
VL: B1 VL with G72R
B7: huAb11 (antibody, human IgG4 S228P, kappa, V domains shown)
VH: B1 VH with M48I, V68A, I70L
VL: B1 VL with G72R
B8: huAb12 (antibody, human IgG4 S228P, kappa, V domains shown)
VH: B1 VH with M48I, V68A, I70L
VL: B1 VL with L4V, Y40F, G72R
B9: huAb14 (antibody, human IgG4 S228P, kappa, V domains shown)
VH: B2 VH with T67R, T68V, L70I
VL: DIVLTQSPATLSLSPGERATLSCKASQSVDYDGDSHMNWYQQKPGQAPRLLIYTASNLESGIPARFSGSGSGADFTLTISSLEPEDFAVYYCQQGNEDPWTFGQGTKVEIKR
B10: huAb16 (antibody, human IgG4 S228P, kappa, V domains shown)
VH: B2 VH
VL: B9 VL

Target: human CSF1R ECD (human) (UniProt P07333)
Assay: binding test on CSF1R ECD; method not described here

Row | binding | Binder
1 | binds | B1
2 | binds | B2
3 | binds | B3
4 | binds | B4
5 | binds | B5
6 | binds | B6
7 | binds | B7
8 | binds | B8
9 | binds | B9
10 | binds | B10
